Data from patent US7217525.
These are yes or no findings as the source states them, for the method shown. Binding seen in cells or lysates may run through a third protein. Some binding calls cover weakened binding; strength is not graded here.

Protein sequences, listed by entry. Tags and fused reporters are not part of them. Residues count along the entry.
UniProt P19490, residues 19-907: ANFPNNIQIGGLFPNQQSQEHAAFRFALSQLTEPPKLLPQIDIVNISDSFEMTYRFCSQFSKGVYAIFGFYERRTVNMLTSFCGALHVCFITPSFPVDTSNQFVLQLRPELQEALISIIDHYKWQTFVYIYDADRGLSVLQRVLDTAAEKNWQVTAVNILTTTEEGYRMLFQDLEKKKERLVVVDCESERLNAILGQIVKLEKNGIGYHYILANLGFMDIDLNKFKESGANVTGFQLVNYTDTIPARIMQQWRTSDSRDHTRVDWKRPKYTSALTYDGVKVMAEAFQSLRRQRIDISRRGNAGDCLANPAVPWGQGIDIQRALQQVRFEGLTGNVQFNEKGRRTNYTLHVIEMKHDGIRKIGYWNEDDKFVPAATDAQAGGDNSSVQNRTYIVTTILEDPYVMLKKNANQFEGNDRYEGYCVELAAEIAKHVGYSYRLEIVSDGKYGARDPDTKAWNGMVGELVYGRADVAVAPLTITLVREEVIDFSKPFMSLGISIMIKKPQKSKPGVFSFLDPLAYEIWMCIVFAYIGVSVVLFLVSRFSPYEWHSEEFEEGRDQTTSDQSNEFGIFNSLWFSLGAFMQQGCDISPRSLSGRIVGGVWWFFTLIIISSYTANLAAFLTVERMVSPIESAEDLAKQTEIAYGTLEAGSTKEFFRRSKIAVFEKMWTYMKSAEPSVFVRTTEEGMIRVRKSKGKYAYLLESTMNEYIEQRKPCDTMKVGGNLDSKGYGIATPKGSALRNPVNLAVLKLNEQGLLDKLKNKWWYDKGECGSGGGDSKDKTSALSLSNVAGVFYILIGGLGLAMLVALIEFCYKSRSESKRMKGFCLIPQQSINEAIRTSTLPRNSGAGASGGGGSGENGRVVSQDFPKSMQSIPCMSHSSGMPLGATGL

Biological target: GluR1 (endogenous, rat brain) (rat) (UniProt P19490)
Experiment: co-immunoprecipitation from rat brain

binding: binds
B1: Narp (endogenous, rat brain and cultured neurons) (ligand)
chain: AGQAQDNPIPGSRFVCTALPPEAARAGCPLPAMPMQGGALSPEEELRAAVLHWRETVVQQKETLGAQREAIRELTSKLARCEGLAGGKARGTGATGKDTMGDLPRDPGHVVEQLSRSLQTLKDRLESLELQLHTNASNAGLPSDFREVLQRRLGELERQLLRKVAELEDEKSLLHNETSAHRQKTENTLNALLQRVTELERGNSAFKSPDAFKVSLPLRTNYLYGKIKKTLPELYAFTICLWLRSSASPGIGTPFSYAVPGQANEIVLIEWGNNPIELLINDKVAQLPLFVSDGKWHHICITWTTRDGMWEAFQDGEKLGTGENLAPWHPIKPGGVLILGQEQDTVGGRFDATQAFVGELSQFNIWDRVLRAQEIINIANCSTNMPGNIIPWVDNNVDVFGGASKWPVETCEERLLDL
modifications: glycosylated
